Data taken from patent US8158172B2, “Fermented food products containing probiotics strains, and method for preparing same” (Compagnie Gervais Danone, priority 2006, dated 2012).

Assay: Sensory analysis for undesirable sulphur-type taste

What does the source list for `N[C@@H](CS)C(=O)O` [cysteine, L-cysteine]?
organoleptic response (12 mg/l of cysteine): no detectable difference; sensory analysis, undesirable taste in comparison with the standard (15 mg/l of filtered cysteine): do not have a detectable undesirable taste; added cysteine concentration as from which an undesirable taste (sulphur note) can be detected (milk models of Example 2): ≥ 0.002%
